Experimental data: PubChem BioAssay AID493014 (National Center for Advancing Translational Sciences (NCATS), 2011)
The other results are listed elsewhere or left out. These are further read-outs of the screen, such as a control signal, another cell line or another target. No call is given for them. Most of these compounds were active or inconclusive in the main read-out, so they are no random draw. Potencies come from curve fits of mixed quality, noted in brackets.

Experiment: qHTS Assay to Find Inhibitors of Chronic Active B-Cell Receptor Signaling
Settings: ABC-DLBCL IkBa-CBG/CBR reporter, luminescence ratio (green luciferase fused to IkBa over red control in TMD8 lymphoma cells), 4 h
Summary of the method: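 Cell line TMD8 (human ABC DLBCL), stably expressing tet-inducible CBG68-IkBa fusion and CBR; IMDM/0.5% FBS; cpd up to 46 uM; dox induction, 4 h, 37C/5% CO2; dual luminescence; green/red ratio; MG132 control.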

[1] = measured here: CBR red luminescence, cell number
[2] = measured here: IkBa-CBG green luminescence

| Structure (SMILES) | AC50 [1] | AC50 [2] |
| --- | --- | --- |
| CCC(C)Sc1cc(C(F)(F)F)c(C(=O)Nc2ccc(Cl)cc2)cn1 (stereo not given) | 15.8 µM [falling, single point] | – |
| CC(C)CN(/C=N/c1sc2c(c1C#N)CCCCC2)CC(C)C | 25.9 µM [rising, partial curve, poor fit] | – |
| C=CCn1c(-c2ccccc2)c[nH]c1=S | 29.1 µM [falling, single point] | 29.1 µM [falling, single point] |
| O=C(CSc1nnc(CNC(=O)c2c(F)cccc2Cl)o1)Nc1ccccc1 | 29.1 µM [rising, single point] | – |
| Nc1c(-c2cccc(Cl)c2)cnn1-c1cccc(C(F)(F)F)c1 | 35.5 µM [rising, single point] | – |
| COc1ccc(OC)c(CNc2sc3c(c2C(=O)Nc2cc(OC)ccc2OC)CCCC3)c1 | 1.12 µM [rising, full curve, poor fit] | – |
| N#C/C(=C\c1c[nH]c2ccccc12)C(=O)NC1CC1 | 12.6 µM [falling, single point] | – |
| COc1cc(/C=N/NC(=O)c2sc3nc(C)cc(C)c3c2N)ccc1O | 4.47 µM [falling, partial curve] | – |
| Oc1[nH]c2ccccc2c1C=Nc1ccc2c(c1)OCO2 | 9.2 µM [falling, partial curve, poor fit] | – |
| Cc1cccc(C)c1NC(=O)CSCCO | 35.5 µM [rising, single point] | – |
| CC(C)Cc1nnc(NC(=O)CC(C)c2ccccc2)s1 (stereo not given) | 10 µM [rising, partial curve] | – |
| CC1CN(C(=O)c2ccc(Oc3ccccc3)cc2)CC(C)O1 (stereo not given) | 17.8 µM [falling, partial curve, poor fit] | – |
| CC(=O)NC(Cc1c[nH]c2ccccc12)C(=O)OCC(=O)N1CCCCCC1 (stereo not given) | 14.1 µM [rising, single point] | – |
| CCOc1ccccc1-n1nnnc1SCC(=O)NC(=O)Nc1ccc2c(c1)OCCO2 | 29.1 µM [falling, single point] | – |
| Cc1ccc(N=Nc2c(O)ccc3n[nH]nc23)cc1 | 11.2 µM [falling, single point] | 0.224 µM [rising, full curve, poor fit] |
| CC1(C)C(=S)N(Cc2ccccc2)c2ccccc21 | 31.6 µM [rising, single point] | – |
| COc1cc(NC(=O)c2cc(-c3ccccc3)on2)cc(OC)c1OC | 6.31 µM [falling, partial curve, poor fit] | – |
| CCOC(=O)Cc1csc(NC(=O)c2cc(C)c(C)s2)n1 | 13 µM [falling, partial curve, poor fit] | – |

An excerpt from above in order of length of the SMILES, low to high:

| Structure (SMILES) | AC50 [1] | AC50 [2] |
| --- | --- | --- |
| CC1(C)C(=S)N(Cc2ccccc2)c2ccccc21 | 31.6 µM [rising, single point] | – |
| CCOC(=O)Cc1csc(NC(=O)c2cc(C)c(C)s2)n1 | 13 µM [falling, partial curve, poor fit] | – |
| O=C(CSc1nnc(CNC(=O)c2c(F)cccc2Cl)o1)Nc1ccccc1 | 29.1 µM [rising, single point] | – |
